Results on two molecules are retold here after publication PMC9375285.

Protein sequences, listed by entry. Tags and fused reporters are not part of them. Lines headed by an entry give the natural chain unless they say otherwise; changes in a name come on top.
UniProt P05019: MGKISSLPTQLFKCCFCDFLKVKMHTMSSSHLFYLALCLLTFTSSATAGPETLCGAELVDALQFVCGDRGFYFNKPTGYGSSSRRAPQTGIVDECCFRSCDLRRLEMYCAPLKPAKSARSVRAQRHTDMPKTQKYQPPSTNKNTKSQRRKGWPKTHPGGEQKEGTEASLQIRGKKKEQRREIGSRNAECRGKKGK
UniProt P06756: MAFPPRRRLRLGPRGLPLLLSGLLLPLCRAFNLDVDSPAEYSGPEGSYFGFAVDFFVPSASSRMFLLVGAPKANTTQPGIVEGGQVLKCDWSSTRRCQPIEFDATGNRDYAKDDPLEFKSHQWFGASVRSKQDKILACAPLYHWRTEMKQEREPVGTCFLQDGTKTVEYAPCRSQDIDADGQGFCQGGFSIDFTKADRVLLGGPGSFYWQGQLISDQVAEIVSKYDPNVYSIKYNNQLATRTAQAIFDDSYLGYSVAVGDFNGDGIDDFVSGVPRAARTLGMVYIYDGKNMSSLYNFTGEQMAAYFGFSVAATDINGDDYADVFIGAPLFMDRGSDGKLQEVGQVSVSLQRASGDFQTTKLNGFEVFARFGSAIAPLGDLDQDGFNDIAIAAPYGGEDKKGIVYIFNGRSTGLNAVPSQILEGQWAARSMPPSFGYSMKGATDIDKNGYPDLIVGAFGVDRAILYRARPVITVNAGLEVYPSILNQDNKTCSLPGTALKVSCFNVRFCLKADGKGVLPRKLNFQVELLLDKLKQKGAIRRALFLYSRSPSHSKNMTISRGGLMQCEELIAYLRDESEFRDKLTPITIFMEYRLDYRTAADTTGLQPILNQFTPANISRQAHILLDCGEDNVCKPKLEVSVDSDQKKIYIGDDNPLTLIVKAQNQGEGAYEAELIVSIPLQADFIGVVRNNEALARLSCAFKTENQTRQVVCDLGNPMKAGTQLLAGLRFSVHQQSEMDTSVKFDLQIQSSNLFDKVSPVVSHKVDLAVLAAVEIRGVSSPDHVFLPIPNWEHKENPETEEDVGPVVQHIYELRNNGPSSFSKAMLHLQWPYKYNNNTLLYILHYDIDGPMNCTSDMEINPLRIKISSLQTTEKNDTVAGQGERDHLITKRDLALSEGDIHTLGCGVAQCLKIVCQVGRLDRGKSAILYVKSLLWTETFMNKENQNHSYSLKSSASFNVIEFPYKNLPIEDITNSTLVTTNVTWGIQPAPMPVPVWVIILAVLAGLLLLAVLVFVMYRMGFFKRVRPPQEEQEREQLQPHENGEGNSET

Where two headings read alike, the source gives them in different places. Results are given in words; binding and its absence hold for the method and conditions named. In cells and extracts the contact can be indirect. Binding calls can cover weak binding; strength is not graded here.

Test [1] addresses insulin growth factor-1 (IGF1) (human (endogenous in CAOV4)) (UniProt P05019). Put plainly: co-IP; cell lysate incubated with Protein A&G Agarose and 1 μg rabbit IgG or IGF1 primary antibody at 4 °C overnight; rinsed twice with 0.5 M NaCl lysis buffer; Western blot; cells with sh-WISP1 and/or IGF1, or overexpressed WISP1. In general terms: In western blotting, separated proteins are transferred to a membrane and probed.

The target is the same in test [2]. The test is described as above. This is another data set of the same source.

For “integrin αvβ3 (from UniProt P06756 31-1048; P05106 27-788) (receptor)”, in test [1], the binding result is reported as “binds”.

B1: WISP1 (protein, UniProt O95388 23-367)
chain: TALSPAPTTMDFTPAPLEDTSSRPQFCKWPCECPPSPPRCPLGVSLITDGCECCKMCAQQLGDNCTEAAICDPHRGLYCDYSGDRPRYAIGVCAQVVGVGCVLDGVRYNNGQSFQPNCKYNCTCIDGAVGCTPLCLRVRPPRLWCPHPRRVSIPGHCCEQWVCEDDAKRPRKTAPRDTGAFDAVGEVEAWHRNCIAYTSPWSPCSTSCGLGVSTRISNVNAQCWPEQESRLCNLRPCDVDIHTLIKAGKKCLAVYQPEASMNFTLAGCISTRSYQPKYCGVCMDNRCCIPYKSKTIDVSFQCPDGLGFSRQVLWINACFCNLSCRNPNDIFADLESYPDFSEIAN
With B1, in test [2], the binding result is on record as “binds”.
